Source: ChEMBL document CHEMBL3988442, “University of Dundee, Small-Polar-MMV Screening Library” (2021).

Mtb glucose medium: 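Phenotypic screen: M. tuberculosis growth, glucose 7H9 medium, 3 days; the read-out is not stated. Concentration: 50 µM. The record gives no direction; compounds that gave an IC50 in retests scored well above the rest, so higher reads as more growth inhibition. Of about 69,000 compounds tested this way, about 760 (1.1%) reached 50% or more in at least one test.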
Mtb cholesterol medium: 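Growth of Mycobacterium tuberculosis over 4 days (cholesterol / DPPC medium with tyloxapol); the read-out is not stated. Compounds at 50 µM. Direction is inferred from retests: higher values go with more growth inhibition. Size under these conditions: about 69,000 compounds, about 370 of them at 50% or above in at least one test.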

Values are the deposited “Percent Effect”, in %.
How 0% and 100% were set is not recorded. Most values in the screen are low, and negative values occur.
Compounds were drawn at random from those tested, without regard to their results.
Two or more numbers in one place are separate tests of the same structure; such repeats can differ widely.

| compound | Mtb glucose medium | Mtb cholesterol medium |
|---|---|---|
| `CC(C(=O)N1CCCC1)N1CCC(c2nccn2CC2CCC2)CC1` (stereo unspecified) | 10.26% | -6.637% |
| `COc1cc(Oc2ccc(C#N)cn2)ccc1CN1CCCC1` | 45.31% | 22.68% |
| `[H][C@@]12CS(=O)(=O)C[C@]1([H])N(S(=O)(=O)c1cn(C)cn1)CCN2CC=C(C)C` | -37.06% | -64.93% |
| `COCCN1CCN(c2cc(OC)ncn2)Cc2ccc(C)nc21` | 3.512% | -16.9% |
| `Cc1nc(C)n(C2CCCN(C(=O)CCCNc3ncccn3)C2)n1` (stereo unspecified) | 24.51% | -2.434% |
| `COCCN(CC1CCCN(C2Cc3ccccc3C2)C1)C(=O)COC` (stereo unspecified) | 30% | 20.76% |
| `O=c1n(CCSCCOc2ccc(Br)cc2)nc2ccccn12` | -6.132% and -3.325% | -10.6% |
| `CC1CCC(O)(CN2CCN(CCNC(=O)C3CCC3)CC2)CC1` (stereo unspecified) | -2.437% and -1.069% | -7.856% |
| `CC(NCc1ccc(-c2ccc(Cl)cc2)o1)c1nnc2n1CCC2` (stereo unspecified) | -10.58% | 0.9353% |
| `Cc1nc(C(C)Nc2ncnc3c2CCNCC3)c(C)s1` (stereo unspecified) | -11.88% | -9.191% |
| `CCN(CC)c1nc(Nc2cccc(C(C)O)c2)nc2ccccc12` (stereo unspecified) | 104.3% | 96.35% |
| `N#Cc1ccc(CNCCn2cccn2)c(F)c1` | -23.33% | 2.639% |
| `Cc1cnc2c(C(=O)N3CCCC(OCc4ccccn4)C3)cnn2c1` (stereo unspecified) | 3.407% | -9.106% |
| `CN(C)C(=O)CC1CC2(CCNCC2)c2cc(F)ccc21` (stereo unspecified) | 18.47% | -7.93% |
| `Cc1n[nH]c(C)c1-c1cnc(CC2CCN(C(C)C)CC2)cn1` | 5.61% | 0.9781% |
| `Fc1ccc(OCCCN2CCCC(Cn3cncn3)C2)cc1` (stereo unspecified) | -18.79% | -9.328% |
| `Cc1cc(OCC(=O)NC(C)c2ccc(N3CCOCC3)cc2)no1` (stereo unspecified) | 16.18% | -0.7991% |
| `NC(=O)C(NC(=O)Cc1cnn(-c2ccccc2)n1)c1ccccc1` (stereo unspecified) | -15.02% | -11.68% |
| `Cc1nc(CN2CCc3c(nc(C4CC4)n3C)C2)nc2ccccc12` | 17.12% | -1.659% |
| `O=C(CCc1nc2cccnc2[nH]1)Nc1ccc2c(c1)NC(=O)CO2` | -6.954% and -10.37% | -33.44% |
| `Cc1cccc(-c2nnc(C(C)NCCn3cc(C)cn3)o2)c1` (stereo unspecified) | 4.287% and -10.41% | 0.7577% and 5.069% |
| `CN(C)c1nc2c(c(N3CCC(O)CC3)n1)CN(CC(C)(C)C)CC2` | 20.89% and 9.251% | -5.687% |
| `CC(C)(C)NC(=O)CN1CCN(C(=O)Nc2ccc(F)cc2F)CC1` | -36.58% | -0.06183% |
| `CCCSCC(=O)Nc1ncn(CC(=O)N2CCCCCC2)n1` | 0.7077% and -20.06% | -4.043% |
| `CCc1noc(-c2cccc(C(=O)O)c2)n1` | -33.24% | -35.17% |
| `NS(=O)(=O)c1cnc(NCC2(c3ccccc3)CCC2)s1` | 5.919% and 11.14% | -8.146% |
| `CC(C)C(NC(=O)c1cnc(N2CCOCC2)nc1)c1cccs1` (stereo unspecified) | 60.96% | 13.46% |
| `CC(C)(C)c1nc(CN2CCCC2CCc2ccccc2)no1` (stereo unspecified) | -4.785% | -14.6% |
| `Cn1nc2c(cc1=O)CN(CC(=O)NC1CCCCNC1=O)CC2` (stereo unspecified) | 2.728% and -12.51% | -4.621% |
| `Cn1ccnc1CN1CCCN(C(=O)COCC2CC2)CC1` | 17.84% | -11.84% |
| `CN(C)Cc1cn(-c2ccccc2C(=O)NCCC2CCCN2C)cn1` (stereo unspecified) | -4.641% | -9.89% and -13.63% |
| `CN(C)S(=O)(=O)N1CCCCC1CCc1ccc(O)cc1` (stereo unspecified) | -2.993% and -2.074% | -14.38% |
| `O=C(O)C(F)(F)F.O=C1CCC2(CCCN(Cc3ccccc3F)C2)N1CC1CC1` (stereo unspecified) | 31.34% | 2.706% |
| `Nc1nccnc1CC1CCCN(Cc2c[nH]c3ccccc23)C1` (stereo unspecified) | 29.84% | 2.625% |
| `CCOC(=O)N1CCC(OC)c2ccccc2N(CC(=O)NC)C(=O)C1` (stereo unspecified) | -0.5442% | -14.58% |
| `CN(C)C(=O)CC1CCOc2ccccc21` (stereo unspecified) | -14.27% | -7.931% |
| `CCc1ccc(C(=O)O)cc1S(=O)(=O)Nc1ccc(=O)n(C)c1` | -9.32% | -21.94% |
| `CC(C)C1CN(C(=O)c2ccccc2)CCS1` (stereo unspecified) | 27.48% and 35.22% | 22.68% |
| `O=C1NCc2ccc(NC(=O)C3CCCN3c3nccs3)cc21` (stereo unspecified) | -3.635% | -1.963% |
| `CC1N(CC2CC2)C(=O)COC12CCN(C(=O)c1ccncc1)CC2` (stereo unspecified) | -20.05% and -3.117% | 10.74% |
| `CCc1nc(NS(=O)(=O)c2cc(C)ccc2F)no1` | 16.9% | 18.78% |
| `[H][C@@]12OCCC[C@]1([H])N(C(N)=O)C[C@@H]2NC(=O)c1cscn1` | 14.28% | 8.937% |
| `[H][C@@]12COC[C@]1(CNC(=O)c1ccno1)CN(Cc1cc(C)on1)C2` | -7.334% | -2.326% |
| `OCCN1CCN(Cc2coc(-c3cccc(Cl)c3)n2)CC1` | -17.2% | -22.71% |
| `Cc1cc(-c2cccc3c2CCNC3)cnc1-n1cnnc1` | -4.859% | 6.039% |
| `CC(C)n1cc(S(=O)(=O)N2CCSCC2)cn1` | 2.388% | 0.6805% |
| `O=C(O)C(F)(F)F.O=C1COC2(CCN(c3cccc(F)c3)CC2)CN1Cc1ccccn1` | -11.44% and -10.75% | 4.764% |
| `CCC1CCCCN1C(=O)Cn1cnc(C#N)n1` (stereo unspecified) | 8.156% and -6.689% | 21.61% |
| `CCc1ccc(CN2CCN(c3cccc(OC)c3)C(=O)C2)nc1` | 24.45% | 13.3% |
| `CC(C)C1CN(c2cnccn2)CCC(=O)N1Cc1ccc(F)cc1` (stereo unspecified) | 4.505% and 3.473% | -7.337% |
| `COC(=O)c1ccc(NC(=O)CN2CCCCC2C2OCCO2)cc1` (stereo unspecified) | 0.5069% and -14.06% | -12.87% |
| `Cn1c(Nc2ccc(F)cc2)c(C#N)c(=O)n(C)c1=O` | 2.482% and 6.165% | -13.25% |
| `[H][C@@]12COC[C@]1(CNS(C)(=O)=O)CN(C(=O)c1ncccn1)C2` | -5.638% and -13.26% | -17.09% and -46.8% |
| `c1nc(CSc2nnc(C3CC3)s2)cs1` | 2.528% | 14.75% |
| `CC1CN(CC(=O)NC(=O)NCc2cccs2)CCN1CC(F)(F)F` (stereo unspecified) | 30.66% | -0.6221% |
| `[H][C@@]12CCCN1C[C@@H](CCSC)N(Cc1cn(C)nc1C)C2` | 1.971% | -7.349% |
| `[H][C@]12CC[C@@]([H])(C1)N(Cc1ccccc1OCCCN1CCN(C)CC1)C2` | 2.009% and 16.3% | 9.653% |
| `Cc1nn(C)c(N2CCOCC2)c1CNCc1ccccc1CO` | -8.493% | -11.56% |
| `CN(Cc1ccccc1)CC(O)Cn1cnc2ccccc2c1=O` (stereo unspecified) | 0.4768% | 8.996% |
| `CN(C)CCNC(=O)c1nc2c(o1)CN(c1ncccn1)C2` | -20.27% and -2.292% | -5.151% |
| `FC(F)(F)c1ccnc(N2CCCCCC2)c1` | 3.628% and 17.33% | 5.593% |
| `Cc1ccc2ncccc2c1CN1CC[C@H](N(C)C)[C@H](CCC(=O)O)C1` | -12.19% | -10.58% |
| `Cl.Cn1ccnc1C1(O)CCN(C(=O)Cc2ccccc2)CC1` | -12.43% | 8.033% and 2.714% |
| `Cc1cnc2c(S(=O)(=O)NCC3CC3)cccc2c1` | 1.275% | -23.53% |
| `CSCC(C)(O)CNC(=O)c1ccc(Br)cc1C` (stereo unspecified) | 24.91% | 9.22% |
| `Cn1ccc2c(C(=O)N3CCN(C(=O)C4CCCC4)CC3)cccc21` | 17.02% | 22.86% |
| `CCN1CC2(CCN(Cc3nc(CSC)no3)CC2)CC1=O` | -27.04% and 0.8584% | -29.07% |
| `O=C(CCCc1nc(-c2ccccc2)no1)N1CCN(CCO)CC1` | -20.06% | -8.021% |
| `COC1COC2(CCN(C(=O)c3ncccn3)CC2)C1` (stereo unspecified) | -19.51% and -4.43% | -6.166% |
| `Cc1cc(C2CCCN(CCS(=O)(=O)c3ccccc3)C2)n[nH]1` (stereo unspecified) | -12.11% and 2.876% | -9.783% |
| `CCc1cc(N[C@H]2CC[C@@H](N)CC2)n2nc(C)c(C)c2n1` | 17.96% | 15.46% |
| `[H][C@@]12CC[C@H](Oc3ccccc3Cl)[C@]1([H])CN(C(=O)CN(C)C)C2` | 19.01% | 9.936% |
| `CCN(C)C(=O)c1cccc(C(=O)N(C)Cc2cccc(O)c2)c1` | 5.491% | 5.103% |
| `CCc1noc(CNc2cccc(C(=O)N3CCSCC3)c2)n1` | 2.171% | -7.163% and -11.72% |
| `Cc1cc(C)n(CNc2nonc2C(N)=O)n1` | -43.74% | -46.75% |
| `COc1ccc(-n2cc(CNC(=O)c3ccc[nH]3)nn2)cc1` | 12.9% and -1.661% | -39.51% |

The last 4 entries again:

| compound | Mtb glucose medium | Mtb cholesterol medium |
|---|---|---|
| `CCN(C)C(=O)c1cccc(C(=O)N(C)Cc2cccc(O)c2)c1` | 5.491% | 5.103% |
| `CCc1noc(CNc2cccc(C(=O)N3CCSCC3)c2)n1` | 2.171% | -7.163% and -11.72% |
| `Cc1cc(C)n(CNc2nonc2C(N)=O)n1` | -43.74% | -46.75% |
| `COc1ccc(-n2cc(CNC(=O)c3ccc[nH]3)nn2)cc1` | 12.9% and -1.661% | -39.51% |